The source of these data is article doi:10.1101/152520.

By UniProt entry, the sequences of proteins in these tests, tags left out.
UniProt Q13283: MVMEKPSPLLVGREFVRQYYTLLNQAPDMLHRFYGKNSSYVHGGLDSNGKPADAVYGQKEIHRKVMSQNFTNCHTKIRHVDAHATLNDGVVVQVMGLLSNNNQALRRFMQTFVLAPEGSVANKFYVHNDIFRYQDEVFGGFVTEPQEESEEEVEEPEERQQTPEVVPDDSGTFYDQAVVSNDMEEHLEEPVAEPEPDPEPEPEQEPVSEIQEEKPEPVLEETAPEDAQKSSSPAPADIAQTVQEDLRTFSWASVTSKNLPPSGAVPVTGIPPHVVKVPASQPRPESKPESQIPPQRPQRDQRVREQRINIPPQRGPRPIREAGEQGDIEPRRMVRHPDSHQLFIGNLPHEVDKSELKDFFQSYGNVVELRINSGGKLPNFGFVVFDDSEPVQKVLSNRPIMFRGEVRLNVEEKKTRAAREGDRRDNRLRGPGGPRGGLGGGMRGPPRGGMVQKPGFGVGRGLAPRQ

First the molecules themselves.
B1: RBMS2 (protein, UniProt Q15434 1-407)
chain: MLLSVTSRPGISTFGYNRNNKKPYVSLAQQMAPPSPSNSTPNSSSGSNGNDQLSKTNLYIRGLQPGTTDQDLVKLCQPYGKIVSTKAILDKTTNKCKGYGFVDFDSPSAAQKAVTALKASGVQAQMAKQQEQDPTNLYISNLPLSMDEQELEGMLKPFGQVISTRILRDTSGTSRGVGFARMESTEKCEAIITHFNGKYIKTPPGVPAPSDPLLCKFADGGPKKRQNQGKFVQNGRAWPRNADMGVMALTYDPTTALQNGFYPAPYNITPNRMLAQSALSPYLSSPVSSYQRVTQTSPLQVPNPSWMHHHSYLMQPSGSVLTPGMDHPISLQPASMMGPLTQQLGHLSLSSTGTYMPTAAAMQGAYISQYTPVPSSSVSVEESSGQQNQVAVDAPSEHGVYSFQFNK
B2: RBMS1 (protein, UniProt P29558 1-406)
chain: MGKVWKQQMYPQYATYYYPQYLQAKQSLVPAHPMAPPSPSTTSSNNNSSSSSNSGWDQLSKTNLYIRGLPPHTTDQDLVKLCQPYGKIVSTKAILDKTTNKCKGYGFVDFDSPAAAQKAVSALKASGVQAQMAKQQEQDPTNLYISNLPLSMDEQELENMLKPFGQVISTRILRDSSGTSRGVGFARMESTEKCEAVIGHFNGKFIKTPPGVSAPTEPLLCKFADGGQKKRQNPNKYIPNGRPWHREGEVRLAGMTLTYDPTTAAIQNGFYPSPYSIATNRMITQTSITPYIASPVSAYQVQSPSWMQPQPYILQHPGAVLTPSMEHTMSLQPASMISPLAQQMSHLSLGSTGTYMPATSAMQGAYLPQYAHMQTTAVPVEEASGQQQVAVETSNDHSPYTFQPNK
B3: KHSRP (protein, UniProt Q92945 1-711)
chain: MSDYSTGGPPPGPPPPAGGGGGAGGAGGGPPPGPPGAGDRGGGGPGGGGPGGGSAGGPSQPPGGGGPGIRKDAFADAVQRARQIAAKIGGDAATTVNNSTPDFGFGGQKRQLEDGDQPESKKLASQGDSISSQLGPIHPPPRTSMTEEYRVPDGMVGLIIGRGGEQINKIQQDSGCKVQISPDSGGLPERSVSLTGAPESVQKAKMMLDDIVSRGRGGPPGQFHDNANGGQNGTVQEIMIPAGKAGLVIGKGGETIKQLQERAGVKMILIQDGSQNTNVDKPLRIIGDPYKVQQACEMVMDILRERDQGGFGDRNEYGSRIGGGIDVPVPRHSVGVVIGRSGEMIKKIQNDAGVRIQFKQDDGTGPEKIAHIMGPPDRCEHAARIINDLLQSLRSGPPGPPGGPGMPPGGRGRGRGQGNWGPPGGEMTFSIPTHKCGLVIGRGGENVKAINQQTGAFVEISRQLPPNGDPNFKLFIIRGSPQQIDHAKQLIEEKIEGPLCPVGPGPGGPGPAGPMGPFNPGPFNQGPPGAPPHAGGPPPHQYPPQGWGNTYPQWQPPAPHDPSKAAAAAADPNAAWAAYYSHYYQQPPGPVPGPAPAPAAPPAQGEPPQPPPTGQSDYTKAWEEYYKKIGQQPQQPGAPPQQDYTKAWEEYYKKQAQVATGGGPGAPPGSQPDYSAAWAEYYRQQAAYYGQTPGPGGPQPPPTQQGQQQAQ
B4: UPF3B (protein, UniProt Q9BZI7 1-483)
chain: MKEEKEHRPKEKRVTLLTPAGATGSGGGTSGDSSKGEDKQDRNKEKKEALSKVVIRRLPPTLTKEQLQEHLQPMPEHDYFEFFSNDTSLYPHMYARAYINFKNQEDIILFRDRFDGYVFLDNKGQEYPAIVEFAPFQKAAKKKTKKRDTKVGTIDDDPEYRKFLESYATDNEKMTSTPETLLEEIEAKNRELIAKKTTPLLSFLKNKQRMREEKREERRRREIERKRQREEERRKWKEEEKRKRKDIEKLKKIDRIPERDKLKDEPKIKVHRFLLQAVNQKNLLKKPEKGDEKELDKREKAKKLDKENLSDERASGQSCTLPKRSDSELKDEKPKRPEDESGRDYREREREYERDQERILRERERLKRQEEERRRQKERYEKEKTFKRKEEEMKKEKDTLRDKGKKAESTESIGSSEKTEKKEEVVKRDRIRNKDRPAMQLYQPGARSRNRLCPPDDSTKSGDSAAERKQESGISHRKEGGEE

Results are given in words; binding and its absence hold for the method and conditions named. Binding seen in cells or lysates may run through a third protein. Here binding means that the protein was enriched with, or labelled near, the bait; the list need not be complete.

For this experiment, the target named is G3BP1-APEX2-GFP (human (endogenous in HEK293T)) (UniProt Q13283). The experiment in a line: proximity labelling.
Regarding B1, the binding result was “binds”.
For B2 the value was “binds”; for B3, “binds”.
Next, B4: “binds”.
